Data published in PMC7819943, “Rice protein-binding microarrays: a tool to detect cis-acting elements near promoter regions in rice”.
The other results are listed elsewhere or left out.

The chains behind the UniProt entries cited, without tags or fusion partners.
UniProt Q0JBA9, entry or part of it: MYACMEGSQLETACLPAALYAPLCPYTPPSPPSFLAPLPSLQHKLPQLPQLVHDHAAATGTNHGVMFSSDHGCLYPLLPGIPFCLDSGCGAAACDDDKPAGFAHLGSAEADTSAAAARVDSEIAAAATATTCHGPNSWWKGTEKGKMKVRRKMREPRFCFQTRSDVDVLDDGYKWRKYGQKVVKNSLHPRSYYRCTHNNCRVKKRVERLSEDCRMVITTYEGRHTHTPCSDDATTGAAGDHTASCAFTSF

molecular target: OsWRKY34 (Oryza sativa, UniProt Q0JBA9 1-250); assay: protein-binding microarray (RPBM); PBS, 2% BSA, 51.3 ng/ul salmon testes DNA, 50 uM zinc acetate, 200 nM TF, 25 C, 1 h; high values mean tight binding; settings: protein: recombinant; tags: N-terminal polyhistidine and DsRed monomer fusion (pET32a); label: CyDye5-dUTP incorporated in the synthesized complementary strand; 3' TTTTT single-stranded linker to array surface; dsDNA, one strand shown
Summary of the method: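 Transcription factors, each fused N-terminally to a polyhistidine tag and DsRed, were expressed in E. coli BL21-CodonPlus and purified on Ni–NTA. A custom Agilent array was made double-stranded by primer extension with Cy5-dUTP and blocked with 2% BSA. It was incubated with 200 nM protein in PBS, 2% BSA, salmon testes DNA and 50 µM zinc acetate at 25 °C for 1 h, then washed. The binding signal is per-feature fluorescence intensity (arbitrary units) read on an Axon 4000B scanner.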

Sequence | binding signal
GGTTAGGAGGTCACAGGTGGTGGTTCCAGATCCGTTAGCGCGGAGTCACCTAGTGCAG | 8930 fluorescence intensity (a.u.)
ACATAATCTCCTTGTAATCTTAATCGATCGCTCCTGTTTCCGGAGTCACCTAGTGCAG | 11000 fluorescence intensity (a.u.)
GGTTTGTCCTAAGTCAAATATGCATATCTTTGACCATTAGCGGAGTCACCTAGTGCAG | 10400 fluorescence intensity (a.u.)
GGGCAGGGAAGGATCTTCGATAGGCTTTGATGAGCAGGGGCGGAGTCACCTAGTGCAG | 9030 fluorescence intensity (a.u.)
AATGGTCAAACGTTGGATAAAAAGTCAACGGCGTCATACACGGAGTCACCTAGTGCAG | 14700 fluorescence intensity (a.u.)
TTTCCTAATAGTAGTACTTGACAGCCTATCACTCCACCAACGGAGTCACCTAGTGCAG | 8910 fluorescence intensity (a.u.)
GACCATAGTTCCAGCGACTTAAATTCATTCGGCCCATCAACGGAGTCACCTAGTGCAG | 9210 fluorescence intensity (a.u.)
CATGCTCCTTGCCCTTTTCAATCTTCATAGATCCTATCTACGGAGTCACCTAGTGCAG | 9670 fluorescence intensity (a.u.)
ATATACATTTAATTCTATTTGATTTTCTGTTTCACATCTTCGGAGTCACCTAGTGCAG | 8730 fluorescence intensity (a.u.)
CACAAGCATTTTTCATTTAATTTTTTTACCTATATGTTCTCGGAGTCACCTAGTGCAG | 10800 fluorescence intensity (a.u.)
TTCATCAGTTAATCGGCGTGTTCCTTTCACCATTGGTCCACGGAGTCACCTAGTGCAG | 8400 fluorescence intensity (a.u.)
AACCCTCGCTTTCTTTGATAATCATTCCTAACTGCCTGGTCGGAGTCACCTAGTGCAG | 8170 fluorescence intensity (a.u.)
CAGGTTTGACCGACCTTTCAACCGATCGACGCTACCGCACCGGAGTCACCTAGTGCAG | 8460 fluorescence intensity (a.u.)
GAATATCAAAACTTCACACACTTTTTGCACTGGGTTTTCACGGAGTCACCTAGTGCAG | 8540 fluorescence intensity (a.u.)
CTGGTGCCACCTTCTCCTGTTGGCTTCATCACCACAGCTCCGGAGTCACCTAGTGCAG | 9840 fluorescence intensity (a.u.)
CAAGGTGAGCATATGCCGCGCGGGGATGGGGATGGATAGACGGAGTCACCTAGTGCAG | 9040 fluorescence intensity (a.u.)
TAGTTGTGGTGGACAAGTTTTCCAAATATGCTCATTTTCTCGGAGTCACCTAGTGCAG | 8090 fluorescence intensity (a.u.)
AATACAGAACCACAGAGCAGGGGCAGGGCATTTCACAATACGGAGTCACCTAGTGCAG | 10100 fluorescence intensity (a.u.)
AAACACCTCGTCTCGCGGCGCTCACTCAGATTACTCACACCGGAGTCACCTAGTGCAG | 9610 fluorescence intensity (a.u.)
ATCTCCCGACCGACAATCCGGCCCCACCATCCAGACACCCCGGAGTCACCTAGTGCAG | 10100 fluorescence intensity (a.u.)
AACACCACTACCGCGGCCATATACTTCCCTCGATTCGACGCGGAGTCACCTAGTGCAG | 8180 fluorescence intensity (a.u.)

Sequence | binding signal
TCATTATTAATTCCTCTCTCTCTCTCTGTCTCCTATCCCTCGGAGTCACCTAGTGCAG | 12500 fluorescence intensity (a.u.)
AGTGTAATTTTATTTGCAATACTTTTGTTATATACTATTTCGGAGTCACCTAGTGCAG | 8450 fluorescence intensity (a.u.)
TGACACGGCACCAAACGCCTCTCGCTCCGCGACGTTAACTCGGAGTCACCTAGTGCAG | 9140 fluorescence intensity (a.u.)
AAGAACCTTTCCATCTACAGGGCTCTTTCTATTACGTACGCGGAGTCACCTAGTGCAG | 8100 fluorescence intensity (a.u.)
CAGTAGTGGGTATCTCTTCTCTTGGCTTCTTCCTGGAAATCGGAGTCACCTAGTGCAG | 8880 fluorescence intensity (a.u.)
CAGATATCAATTCTGTTTGTTGCACTGTTCTTTTCTTCCACGGAGTCACCTAGTGCAG | 9370 fluorescence intensity (a.u.)
TCTTCCCTTGTTTATCCTGGATATTCCGGAGGACTTCGCTCGGAGTCACCTAGTGCAG | 9830 fluorescence intensity (a.u.)
ATTCTTTTTCTTTTTCTAATTAATCGTGTGTTAATTGTTTCGGAGTCACCTAGTGCAG | 9430 fluorescence intensity (a.u.)
ATCTCCTCTTAGCTCGATCGGCTTGCTAGCTCCTCGGCCACGGAGTCACCTAGTGCAG | 10000 fluorescence intensity (a.u.)
TCCATTGGCCACACTCCGATTCCTCTCTTCCTTCCTAAAACGGAGTCACCTAGTGCAG | 11500 fluorescence intensity (a.u.)
TCTCTTCCATCTCACCCATCGCCGCCACAACTTGCCTCACCGGAGTCACCTAGTGCAG | 8260 fluorescence intensity (a.u.)
GTTAATCTATCGCTCCGTTTGATGTGTGGAGGTCTTTCCACGGAGTCACCTAGTGCAG | 8080 fluorescence intensity (a.u.)
CCTTCCGTTTGACACTGTTGACTTTTTTAAATATGTTTGACGGAGTCACCTAGTGCAG | 16100 fluorescence intensity (a.u.)
ATCAATTCAGTCGTTTGTATCCTCGAATCATTTTCATGTTCGGAGTCACCTAGTGCAG | 9840 fluorescence intensity (a.u.)
CCTCCATTGCCAGTTGCTGCTCATCCTCATCTTCTCCATCCGGAGTCACCTAGTGCAG | 8780 fluorescence intensity (a.u.)
TTATCTTCGTTTGTTCTAAGTTACTTCTATAATATATATACGGAGTCACCTAGTGCAG | 8400 fluorescence intensity (a.u.)
ATCACTGTCACCTTCACAACCATCACCACCAACTAAATCGCGGAGTCACCTAGTGCAG | 10000 fluorescence intensity (a.u.)
TTTGGTCCGAGTTTCATTCACGTCGTTTAACCGCGAAATCCGGAGTCACCTAGTGCAG | 8930 fluorescence intensity (a.u.)
ACAGAACCATGCATCTATGTGCTTATACTCTCCCATGCGACGGAGTCACCTAGTGCAG | 8660 fluorescence intensity (a.u.)
CATCCACACGCACTTTACAACTTCGCTTTTCTTCGCATCGCGGAGTCACCTAGTGCAG | 10400 fluorescence intensity (a.u.)
GTTCCTCTCCTCCGCAAATGGCGACCAACCCCTTGACCCACGGAGTCACCTAGTGCAG | 8070 fluorescence intensity (a.u.)

5 neighbouring entries from above:
Sequence | binding signal
GTTAATCTATCGCTCCGTTTGATGTGTGGAGGTCTTTCCACGGAGTCACCTAGTGCAG | 8080 fluorescence intensity (a.u.)
CCTTCCGTTTGACACTGTTGACTTTTTTAAATATGTTTGACGGAGTCACCTAGTGCAG | 16100 fluorescence intensity (a.u.)
ATCAATTCAGTCGTTTGTATCCTCGAATCATTTTCATGTTCGGAGTCACCTAGTGCAG | 9840 fluorescence intensity (a.u.)
CCTCCATTGCCAGTTGCTGCTCATCCTCATCTTCTCCATCCGGAGTCACCTAGTGCAG | 8780 fluorescence intensity (a.u.)
TTATCTTCGTTTGTTCTAAGTTACTTCTATAATATATATACGGAGTCACCTAGTGCAG | 8400 fluorescence intensity (a.u.)

Remaining list, next part:

Sequence | binding signal
TTTCTCGATCTCTCCCGTTGCAAGTATGTTCGCCTGTTATCGGAGTCACCTAGTGCAG | 14900 fluorescence intensity (a.u.)
GCTTGGATTTTTTTTGTTGCTTTTGGTTGTTGTGATCCCTCGGAGTCACCTAGTGCAG | 11800 fluorescence intensity (a.u.)
CTCCTCGCTTCCTTGTCCATCTTCAAGCTACCTTGCTTCTCGGAGTCACCTAGTGCAG | 8200 fluorescence intensity (a.u.)
GATGATGGTGGTGTCCTTGCCGCGTCCTCTCTTCCATACCCGGAGTCACCTAGTGCAG | 10900 fluorescence intensity (a.u.)
CACGTAGTTTTCCTGTATTTTTTGTTCCTTACAATTCAAGCGGAGTCACCTAGTGCAG | 9520 fluorescence intensity (a.u.)
GGTATTTGAGTATGTCATCCGTGTATGAGTCAAGTTCGTACGGAGTCACCTAGTGCAG | 8130 fluorescence intensity (a.u.)
TAGCTACTTCCTTTTTTTCTTTTTCCCATCCCTCAAGCGACGGAGTCACCTAGTGCAG | 8080 fluorescence intensity (a.u.)
GTAGTCAGTGGTTGCTGGTGGTCTAAGAAGTTTGCTGTTGCGGAGTCACCTAGTGCAG | 8710 fluorescence intensity (a.u.)
CGGCGGGTTAGGGTTTGGGGTTGGGGTAAGGATAGGAGGGCGGAGTCACCTAGTGCAG | 14200 fluorescence intensity (a.u.)
GGAGGGGAGGTCTGTGATGTCAACAAGTTAGGAGCGAGGACGGAGTCACCTAGTGCAG | 10800 fluorescence intensity (a.u.)
GCGCCCGTAGCTTGTCCGAAGGAACCTTGCAATGTTTAACCGGAGTCACCTAGTGCAG | 8360 fluorescence intensity (a.u.)
ATCCAACCCAACTCCCGTTGCTTTTTGTTGGACCCACTTGCGGAGTCACCTAGTGCAG | 8110 fluorescence intensity (a.u.)
ACGGTGCGGTCTTGATTCGTGATTTTTCTCTCCTTCGCATCGGAGTCACCTAGTGCAG | 8520 fluorescence intensity (a.u.)
ACCCGCTGATTGATTGATTGGTTTGTCTTGGTCGTTGGCTCGGAGTCACCTAGTGCAG | 9690 fluorescence intensity (a.u.)
GCAGGTAGACAAAACCATTACACGGTCAGAGATAAATTTTCGGAGTCACCTAGTGCAG | 8080 fluorescence intensity (a.u.)
AAACCCTAACCCTAGCTCCCCAATCCGCCCGTTCCGGCCACGGAGTCACCTAGTGCAG | 8810 fluorescence intensity (a.u.)
CTCAGGTCCCATCTGTCAGTCTCTCTTCAGCTTGCCATATCGGAGTCACCTAGTGCAG | 10300 fluorescence intensity (a.u.)
ACTACTTGTTACTGTACTAATACATTCCTTTTTCTTTTCGCGGAGTCACCTAGTGCAG | 9130 fluorescence intensity (a.u.)
AGATCCATTTTTTTCTTTTCTTTTCACCCTAATTCTGAGTCGGAGTCACCTAGTGCAG | 8310 fluorescence intensity (a.u.)
CCGGCCTCCATTGATCACCACCCCGACGCCTTCGTCCAGGCGGAGTCACCTAGTGCAG | 8540 fluorescence intensity (a.u.)
GCCTCCACTGCCGCCACGAGAGCCGAACCACGCAGACCTACGGAGTCACCTAGTGCAG | 8200 fluorescence intensity (a.u.)

Sequence | binding signal
CCATGTTGACAAATGTTCTATTCTCTATATTCGTGCATTCCGGAGTCACCTAGTGCAG | 8920 fluorescence intensity (a.u.)
CCCGACCTCTACCACGCCCTCGCCGCCGTCGCCGCCGCCGCGGAGTCACCTAGTGCAG | 11700 fluorescence intensity (a.u.)
GTATCATGTCCCTTGTGATCTTTATTACTTCTACTTCGATCGGAGTCACCTAGTGCAG | 8560 fluorescence intensity (a.u.)
GTTTTCGAATCTAACTTTAACCTTTATCAACTCCCACCCTCGGAGTCACCTAGTGCAG | 8020 fluorescence intensity (a.u.)
CTGATGGCACAGCTCGGTCCTTCTCGGCCGCCTTCGTGTTCGGAGTCACCTAGTGCAG | 8810 fluorescence intensity (a.u.)
CCATCCGATTCCCGATCCCACCACCACCCGCCGCTTTAATCGGAGTCACCTAGTGCAG | 11400 fluorescence intensity (a.u.)
GATTATTTCTACTTATATATCTCTCGATCTTCACAAATTACGGAGTCACCTAGTGCAG | 8320 fluorescence intensity (a.u.)
GCATCATCGTGGTGTCGTCTCTTCCACGTCAACCGTATTACGGAGTCACCTAGTGCAG | 9420 fluorescence intensity (a.u.)
ATCGAACGCTTTTTTTTATATAATTAAAACCTTCATTCTACGGAGTCACCTAGTGCAG | 8130 fluorescence intensity (a.u.)
TTTTATACTTACATTCCTATCAAAATTCTGCGTTTTTCCTCGGAGTCACCTAGTGCAG | 8210 fluorescence intensity (a.u.)
CATGTGTTTGATTTCCTGTTTATATTTTGTTCAGAGTTTCCGGAGTCACCTAGTGCAG | 11700 fluorescence intensity (a.u.)
CTTGGATTTGGGTGTTTGTAAATGGCATTTCTTGGATTTTCGGAGTCACCTAGTGCAG | 8570 fluorescence intensity (a.u.)
GCTGCAAATAATCGACTTTCTCTCTCTCTAGTCTCTATATCGGAGTCACCTAGTGCAG | 11100 fluorescence intensity (a.u.)
TGATGTATTGGGGTTTTTTTATACAGCTGCAATTCCATCGCGGAGTCACCTAGTGCAG | 8060 fluorescence intensity (a.u.)
GGTAGGTCTGGATTAATGGTCGTTGTTTTCCAGATTTTAACGGAGTCACCTAGTGCAG | 8340 fluorescence intensity (a.u.)
GAGTCTTTCACCATTCTTACCCCGACGCGGCGTCTCCTCCCGGAGTCACCTAGTGCAG | 8080 fluorescence intensity (a.u.)
AGAGATTCCCACCCCGCGATTCCCTTGCAGGCCGCCAGATCGGAGTCACCTAGTGCAG | 8060 fluorescence intensity (a.u.)
AATCTTCTTTGTCTCTCTTGTGCATGTTCTTTGTTTGAATCGGAGTCACCTAGTGCAG | 11000 fluorescence intensity (a.u.)
GTTTGACCATTTATCTTATTCAAAAAATTTTGGATTATTACGGAGTCACCTAGTGCAG | 8520 fluorescence intensity (a.u.)
GCATTACAAATCTTCTTCGATTCGAATTCAGTACAAATTTCGGAGTCACCTAGTGCAG | 8340 fluorescence intensity (a.u.)
TTCCTTTCTGTCTGTGCCGTGTGTTTCCTTTTTATCCTGTCGGAGTCACCTAGTGCAG | 11800 fluorescence intensity (a.u.)
